Data as given in the supplement of paper PMC10849652.
The other results are listed elsewhere or left out.

Chains of the proteins cited; added tags and fusions are not shown. Lines headed by an entry give the natural chain unless they say otherwise; changes in a name come on top.
UniProt Q8IWA0: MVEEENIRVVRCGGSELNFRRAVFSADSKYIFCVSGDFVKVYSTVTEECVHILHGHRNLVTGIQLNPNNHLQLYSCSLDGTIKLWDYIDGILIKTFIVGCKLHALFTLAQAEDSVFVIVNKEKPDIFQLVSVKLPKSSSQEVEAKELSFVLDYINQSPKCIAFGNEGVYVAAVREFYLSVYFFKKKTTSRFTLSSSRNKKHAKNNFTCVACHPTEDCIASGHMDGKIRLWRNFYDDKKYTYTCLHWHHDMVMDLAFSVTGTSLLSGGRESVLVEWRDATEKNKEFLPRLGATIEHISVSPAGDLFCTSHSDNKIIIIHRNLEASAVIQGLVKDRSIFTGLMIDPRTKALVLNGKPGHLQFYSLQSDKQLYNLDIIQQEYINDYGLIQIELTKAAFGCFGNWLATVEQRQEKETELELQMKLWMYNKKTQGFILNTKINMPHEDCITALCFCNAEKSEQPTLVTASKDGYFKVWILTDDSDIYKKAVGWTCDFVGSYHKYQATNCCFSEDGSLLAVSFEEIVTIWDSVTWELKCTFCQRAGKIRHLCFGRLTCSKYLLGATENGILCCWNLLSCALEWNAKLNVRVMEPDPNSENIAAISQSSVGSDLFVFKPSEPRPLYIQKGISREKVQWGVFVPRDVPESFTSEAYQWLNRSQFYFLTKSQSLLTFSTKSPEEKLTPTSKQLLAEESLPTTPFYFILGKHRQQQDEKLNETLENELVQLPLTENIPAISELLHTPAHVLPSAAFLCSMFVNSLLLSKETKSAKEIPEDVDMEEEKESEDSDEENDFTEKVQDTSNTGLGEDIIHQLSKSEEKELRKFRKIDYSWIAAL
UniProt O95497: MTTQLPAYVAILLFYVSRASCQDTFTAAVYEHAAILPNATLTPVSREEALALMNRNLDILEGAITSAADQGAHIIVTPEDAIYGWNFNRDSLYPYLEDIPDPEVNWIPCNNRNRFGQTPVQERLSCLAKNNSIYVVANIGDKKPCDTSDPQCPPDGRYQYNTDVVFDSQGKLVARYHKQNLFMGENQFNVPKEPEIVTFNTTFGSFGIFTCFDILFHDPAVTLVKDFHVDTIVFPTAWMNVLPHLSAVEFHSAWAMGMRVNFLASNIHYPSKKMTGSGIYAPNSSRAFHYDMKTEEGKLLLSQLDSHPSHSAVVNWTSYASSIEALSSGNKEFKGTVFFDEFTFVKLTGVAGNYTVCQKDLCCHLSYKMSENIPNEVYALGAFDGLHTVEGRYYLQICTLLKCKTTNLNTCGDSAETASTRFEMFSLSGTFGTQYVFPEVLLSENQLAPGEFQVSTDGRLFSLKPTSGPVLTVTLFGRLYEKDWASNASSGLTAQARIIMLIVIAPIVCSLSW
UniProt P09327: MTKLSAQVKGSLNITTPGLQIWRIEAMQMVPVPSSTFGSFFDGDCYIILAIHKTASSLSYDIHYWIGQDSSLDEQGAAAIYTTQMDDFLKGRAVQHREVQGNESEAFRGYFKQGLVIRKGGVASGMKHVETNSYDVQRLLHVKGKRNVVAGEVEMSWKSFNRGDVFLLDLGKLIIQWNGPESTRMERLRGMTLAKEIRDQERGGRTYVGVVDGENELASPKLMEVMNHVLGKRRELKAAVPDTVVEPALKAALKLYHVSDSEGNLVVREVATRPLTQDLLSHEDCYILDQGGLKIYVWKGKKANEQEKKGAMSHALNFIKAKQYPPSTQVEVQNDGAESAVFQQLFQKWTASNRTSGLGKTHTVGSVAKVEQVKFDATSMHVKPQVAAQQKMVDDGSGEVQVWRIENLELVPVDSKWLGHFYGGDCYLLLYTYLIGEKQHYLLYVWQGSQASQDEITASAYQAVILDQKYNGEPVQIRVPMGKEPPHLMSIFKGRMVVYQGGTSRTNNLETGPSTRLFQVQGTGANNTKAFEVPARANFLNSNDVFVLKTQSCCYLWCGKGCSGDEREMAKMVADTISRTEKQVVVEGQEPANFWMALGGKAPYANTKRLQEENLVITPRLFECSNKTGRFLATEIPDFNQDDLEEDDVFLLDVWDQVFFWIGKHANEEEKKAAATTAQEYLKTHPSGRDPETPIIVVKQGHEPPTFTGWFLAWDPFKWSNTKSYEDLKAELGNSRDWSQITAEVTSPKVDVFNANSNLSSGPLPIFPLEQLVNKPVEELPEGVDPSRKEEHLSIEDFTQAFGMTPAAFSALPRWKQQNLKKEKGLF
UniProt Q15007: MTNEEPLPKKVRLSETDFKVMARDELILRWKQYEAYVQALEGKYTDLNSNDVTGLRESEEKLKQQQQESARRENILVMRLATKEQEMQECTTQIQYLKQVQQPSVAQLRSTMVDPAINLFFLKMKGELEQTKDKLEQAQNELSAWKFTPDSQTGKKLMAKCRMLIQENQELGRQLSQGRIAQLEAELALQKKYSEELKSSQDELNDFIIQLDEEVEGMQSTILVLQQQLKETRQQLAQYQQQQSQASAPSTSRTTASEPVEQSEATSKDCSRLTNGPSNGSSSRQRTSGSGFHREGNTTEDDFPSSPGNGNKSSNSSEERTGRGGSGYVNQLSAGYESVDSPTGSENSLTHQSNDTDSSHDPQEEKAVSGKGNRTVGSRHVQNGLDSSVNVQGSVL
UniProt Q3ZAQ7: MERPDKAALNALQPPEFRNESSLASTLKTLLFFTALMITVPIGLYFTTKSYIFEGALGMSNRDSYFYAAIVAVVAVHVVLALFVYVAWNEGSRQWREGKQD
UniProt Q9H867: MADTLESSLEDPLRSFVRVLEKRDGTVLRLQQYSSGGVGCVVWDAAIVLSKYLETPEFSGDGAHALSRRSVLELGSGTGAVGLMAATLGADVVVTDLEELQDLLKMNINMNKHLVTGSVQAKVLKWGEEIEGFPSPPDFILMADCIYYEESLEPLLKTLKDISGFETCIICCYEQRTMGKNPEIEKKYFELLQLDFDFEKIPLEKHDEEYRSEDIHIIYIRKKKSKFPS
UniProt Q9NZC7: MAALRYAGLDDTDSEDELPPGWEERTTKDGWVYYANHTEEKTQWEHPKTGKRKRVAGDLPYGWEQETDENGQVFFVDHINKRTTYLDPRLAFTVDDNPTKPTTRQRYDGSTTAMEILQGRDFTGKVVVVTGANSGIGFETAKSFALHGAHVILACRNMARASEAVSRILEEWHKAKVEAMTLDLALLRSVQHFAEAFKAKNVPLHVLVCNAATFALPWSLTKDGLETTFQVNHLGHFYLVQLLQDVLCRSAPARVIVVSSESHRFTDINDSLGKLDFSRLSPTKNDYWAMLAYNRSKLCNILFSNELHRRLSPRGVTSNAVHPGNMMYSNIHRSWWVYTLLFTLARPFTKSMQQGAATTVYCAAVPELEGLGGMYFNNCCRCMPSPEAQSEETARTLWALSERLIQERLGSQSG
UniProt Q9Y6I7: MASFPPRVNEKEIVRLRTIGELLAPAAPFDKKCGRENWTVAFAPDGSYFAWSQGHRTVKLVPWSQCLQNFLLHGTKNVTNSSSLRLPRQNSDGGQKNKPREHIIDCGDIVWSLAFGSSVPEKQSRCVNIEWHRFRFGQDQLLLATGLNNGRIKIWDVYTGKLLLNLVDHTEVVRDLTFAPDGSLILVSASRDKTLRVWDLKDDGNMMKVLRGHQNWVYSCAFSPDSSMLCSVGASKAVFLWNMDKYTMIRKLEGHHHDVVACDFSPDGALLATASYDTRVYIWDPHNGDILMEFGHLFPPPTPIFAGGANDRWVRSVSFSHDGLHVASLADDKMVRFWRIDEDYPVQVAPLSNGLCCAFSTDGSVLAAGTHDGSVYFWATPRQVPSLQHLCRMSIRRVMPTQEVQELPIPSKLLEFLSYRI
UniProt P04275, whole entry, looked up: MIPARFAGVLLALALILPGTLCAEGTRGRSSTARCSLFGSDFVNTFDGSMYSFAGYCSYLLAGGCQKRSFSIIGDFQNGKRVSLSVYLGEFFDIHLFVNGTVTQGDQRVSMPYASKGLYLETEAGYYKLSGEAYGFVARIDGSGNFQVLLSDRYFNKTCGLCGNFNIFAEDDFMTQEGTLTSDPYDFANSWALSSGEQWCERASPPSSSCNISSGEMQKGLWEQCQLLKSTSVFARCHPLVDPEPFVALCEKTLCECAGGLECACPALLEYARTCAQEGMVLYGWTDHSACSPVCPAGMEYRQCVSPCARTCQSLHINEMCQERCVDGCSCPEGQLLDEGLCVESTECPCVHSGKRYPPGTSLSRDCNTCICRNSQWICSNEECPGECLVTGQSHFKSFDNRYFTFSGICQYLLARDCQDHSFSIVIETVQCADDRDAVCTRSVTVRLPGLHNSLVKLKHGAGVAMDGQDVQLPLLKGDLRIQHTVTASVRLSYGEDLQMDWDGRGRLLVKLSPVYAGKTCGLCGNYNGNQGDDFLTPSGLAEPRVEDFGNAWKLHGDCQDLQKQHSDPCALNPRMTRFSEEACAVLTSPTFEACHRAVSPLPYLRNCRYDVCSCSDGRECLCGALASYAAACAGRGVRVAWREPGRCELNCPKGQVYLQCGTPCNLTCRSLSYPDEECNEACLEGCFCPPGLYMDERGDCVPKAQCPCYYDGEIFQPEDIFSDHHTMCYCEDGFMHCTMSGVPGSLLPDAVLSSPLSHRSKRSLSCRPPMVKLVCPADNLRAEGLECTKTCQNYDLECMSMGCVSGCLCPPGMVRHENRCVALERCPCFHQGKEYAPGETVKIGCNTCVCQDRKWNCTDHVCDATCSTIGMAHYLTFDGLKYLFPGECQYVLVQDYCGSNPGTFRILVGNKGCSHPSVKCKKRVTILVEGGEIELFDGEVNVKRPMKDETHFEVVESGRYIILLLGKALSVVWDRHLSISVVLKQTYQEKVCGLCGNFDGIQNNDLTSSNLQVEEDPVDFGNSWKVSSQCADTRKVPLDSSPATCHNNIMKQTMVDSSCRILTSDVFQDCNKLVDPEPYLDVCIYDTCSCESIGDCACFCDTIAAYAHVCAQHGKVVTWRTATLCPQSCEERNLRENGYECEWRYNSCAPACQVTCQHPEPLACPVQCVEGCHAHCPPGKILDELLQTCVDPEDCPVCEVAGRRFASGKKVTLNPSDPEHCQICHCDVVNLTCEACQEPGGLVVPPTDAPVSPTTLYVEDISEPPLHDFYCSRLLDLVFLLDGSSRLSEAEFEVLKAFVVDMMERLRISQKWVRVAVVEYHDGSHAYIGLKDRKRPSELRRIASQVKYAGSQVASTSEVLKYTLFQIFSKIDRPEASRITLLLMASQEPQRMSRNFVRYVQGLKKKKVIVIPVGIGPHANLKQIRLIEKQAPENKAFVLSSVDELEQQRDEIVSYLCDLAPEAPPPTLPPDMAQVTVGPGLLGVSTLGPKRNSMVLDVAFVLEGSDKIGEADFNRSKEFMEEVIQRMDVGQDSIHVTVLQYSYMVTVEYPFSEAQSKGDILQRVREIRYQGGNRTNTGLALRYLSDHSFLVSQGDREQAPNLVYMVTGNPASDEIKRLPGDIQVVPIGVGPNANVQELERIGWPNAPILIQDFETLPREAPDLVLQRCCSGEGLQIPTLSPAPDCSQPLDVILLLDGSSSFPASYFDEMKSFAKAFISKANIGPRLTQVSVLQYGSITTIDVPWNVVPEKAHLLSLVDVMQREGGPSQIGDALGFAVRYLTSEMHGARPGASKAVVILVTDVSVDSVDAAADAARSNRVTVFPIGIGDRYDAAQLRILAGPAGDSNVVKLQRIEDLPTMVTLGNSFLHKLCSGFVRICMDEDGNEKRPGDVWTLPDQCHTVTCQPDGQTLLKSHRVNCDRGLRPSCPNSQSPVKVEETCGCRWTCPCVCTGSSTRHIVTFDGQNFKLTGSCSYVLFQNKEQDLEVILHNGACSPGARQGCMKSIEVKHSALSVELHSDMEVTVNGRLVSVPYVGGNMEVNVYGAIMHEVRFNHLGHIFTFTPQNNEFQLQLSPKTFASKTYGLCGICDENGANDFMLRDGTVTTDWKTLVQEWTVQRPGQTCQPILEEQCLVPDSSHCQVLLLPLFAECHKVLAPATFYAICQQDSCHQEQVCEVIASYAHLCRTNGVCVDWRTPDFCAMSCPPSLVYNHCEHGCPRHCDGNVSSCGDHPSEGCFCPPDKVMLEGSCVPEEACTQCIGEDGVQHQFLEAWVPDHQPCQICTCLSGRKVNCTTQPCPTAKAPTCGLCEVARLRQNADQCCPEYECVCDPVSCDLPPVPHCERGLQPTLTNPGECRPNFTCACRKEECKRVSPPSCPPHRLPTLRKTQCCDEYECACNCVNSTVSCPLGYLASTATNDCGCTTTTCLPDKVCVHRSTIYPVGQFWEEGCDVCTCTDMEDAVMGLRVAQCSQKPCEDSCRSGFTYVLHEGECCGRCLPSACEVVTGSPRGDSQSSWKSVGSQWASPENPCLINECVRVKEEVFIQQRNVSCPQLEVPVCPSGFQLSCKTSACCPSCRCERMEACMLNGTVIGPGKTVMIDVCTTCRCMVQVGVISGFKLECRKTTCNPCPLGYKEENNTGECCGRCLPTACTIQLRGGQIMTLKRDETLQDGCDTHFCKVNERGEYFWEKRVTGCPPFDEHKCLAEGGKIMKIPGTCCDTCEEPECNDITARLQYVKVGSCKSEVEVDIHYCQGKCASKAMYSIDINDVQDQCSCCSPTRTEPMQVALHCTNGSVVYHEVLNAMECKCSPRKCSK

What was measured:
Test in all cases: log2 fold change, soluble protein after heating vs DMSO (PISA); higher = thermal stabilisation; K562 cells, 10 uM, 30 min; active = over 0.2 and 3.5 SD of the protein, either way, in both replicates (recomputed)
crizotinib = compound: C[C@@H](Oc1cc(-c2cnn(C3CCNCC3)c2)cnc1N)c1c(Cl)ccc(F)c1Cl [crizotinib]
Summary of the method: (§1)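 Thermal stability values are relative to control samples and come from duplicates. They are expressed as log2 fold changes. For measurement, K562 cells (2×10^6 cells/mL) received 10 μM compound for 30 min, and aliquots were heated for 3 min over 48°C-58°C, pooled, and extracted at 4°C in PBS with 0.5% NP-40. Soluble protein, the supernatant after 21,000xg for 90 min, was quantified by TMTpro 16plex LC-MS/MS with equalised channel sums.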

[1] = compound: C[C@@H]1COCCN1C2=NC(=NC(=C2)C3(CC3)S(=O)(=O)C)C4=C5C=CNC5=CC=C4
Summary of the method: as §1

[2] = compound: C[C@H](C1=CC=C(C=C1)C(=O)NC2=C3C=CNC3=NC=C2)N
Summary of the method: as §1

gandotinib = compound: Cc1cc(Nc2cc(CN3CCOCC3)c3nc(C)c(Cc4ccc(Cl)cc4F)n3n2)n[nH]1 [gandotinib]
Summary of the method: as §1

doramapimod = compound: Cc1ccc(-n2nc(C(C)(C)C)cc2NC(=O)Nc2ccc(OCCN3CCOCC3)c3ccccc23)cc1 [doramapimod]
Summary of the method: as §1

ispinesib = compound: Cc1ccc(C(=O)N(CCCN)[C@@H](c2nc3cc(Cl)ccc3c(=O)n2Cc2ccccc2)C(C)C)cc1 [ispinesib]
Summary of the method: as §1

bafetinib = compound: Cc1ccc(NC(=O)c2ccc(CN3CC[C@H](N(C)C)C3)c(C(F)(F)F)c2)cc1Nc1nccc(-c2cncnc2)n1 [bafetinib]
Summary of the method: as §1

[3] = compound: Cc1cccc(CC(=O)N2CCc3c2ccc(-c2cn(C)c4ncnc(N)c24)c3F)n1
Summary of the method: as §1

nilotinib = compound: Cc1cn(-c2cc(NC(=O)c3ccc(C)c(Nc4nccc(-c5cccnc5)n4)c3)cc(C(F)(F)F)c2)cn1 [nilotinib]
Summary of the method: as §1

[4] = compound: Cc1nc(Nc2n[nH]c3c2CN(C(=O)N[C@H](CN(C)C)c2ccccc2)C3(C)C)c2sccc2n1
Summary of the method: as §1

[5] = compound: Cc1ncc(-c2ccnc(Nc3ccc(S(C)(=O)=O)cc3)n2)n1C(C)C
Summary of the method: as §1

[6] = compound: Cn1cc(-c2ccc3c(c2)CCN3C(=O)Cc2cccc(C(F)(F)F)c2)c2c(N)ncnc21
Summary of the method: as §1

[7] = compound: Cn1cc(-c2ccc3nnc(C(F)(F)c4ccc5ncccc5c4)n3n2)cn1
Summary of the method: as §1

tozasertib = compound: Cc1cc(Nc2cc(N3CCN(C)CC3)nc(Sc3ccc(NC(=O)C4CC4)cc3)n2)n[nH]1 [tozasertib]
Summary of the method: as §1

[8] = compound: Cc1cc(SCc2sc(-c3ccc(C(F)(F)F)cc3)nc2C)ccc1OCC(=O)O
Summary of the method: as §1

dasatinib = compound: Cc1nc(Nc2ncc(C(=O)Nc3c(C)cccc3Cl)s2)cc(N2CCN(CCO)CC2)n1 [dasatinib]
Summary of the method: as §1

tipifarnib = compound: Cn1cncc1[C@@](N)(c1ccc(Cl)cc1)c1ccc2c(c1)c(-c1cccc(Cl)c1)cc(=O)n2C [tipifarnib]
Summary of the method: as §1

mubritinib = compound: FC(F)(F)c1ccc(/C=C/c2nc(COc3ccc(CCCCn4ccnn4)cc3)co2)cc1 [mubritinib]
Summary of the method: as §1

duvelisib = compound: C[C@H](Nc1ncnc2nc[nH]c12)c1cc2cccc(Cl)c2c(=O)n1-c1ccccc1 [duvelisib]
Summary of the method: as §1

[9] = compound: CS(=O)(=O)c1ccc(-c2cnc(N)c(C(=O)Nc3ccccc3)n2)cc1
Summary of the method: as §1

Measured: log2 fold change

VIRMA (UniProt Q69YN4)
inactive: crizotinib 0.095 | [1] 0.232 | [2] 0.029 | gandotinib 0.11 | doramapimod 0.03 | ispinesib -0.042 | bafetinib -0.066 | [3] -0.195 | nilotinib -0.03 | [4] -0.042 | [5] 0.041 | [6] -0.193 | [7] 0.05

WWP2 (UniProt O00308)
inactive: crizotinib -0.006 | [1] -0.003 | doramapimod 0.046

WARS1 (UniProt G3V339)
inactive: [1] -0.123

WNK4 (UniProt Q96J92)
inactive: [1] -0.134 | tozasertib 0.06

WDR75 (UniProt Q8IWA0)
inactive: crizotinib -0.07 | [1] -0.03 | [2] 0.185 | [8] 0.112 | doramapimod 0.145 | ispinesib -0.219 | bafetinib 0.019 | nilotinib -0.214 | [4] 0.041 | dasatinib 0.085 | [5] 0.109 | [6] -0.252 | [7] -0.045 | tipifarnib -0.021 | mubritinib -0.329

WASF1 (UniProt Q92558)
inactive: crizotinib -0.047 | [1] 0.058 | [2] -0.033 | duvelisib 0.038 | gandotinib -0.025 | tozasertib 0.006 | [8] 0.154 | doramapimod -0.035 | ispinesib -0.079 | bafetinib -0.138 | [3] -0.031 | nilotinib -0.083 | [4] -0.091 | dasatinib -0.163 | [5] -0.015 | [6] 0.048 | [7] 0.004 | tipifarnib -0.009 | mubritinib 0.106

WDR54 isoform 4 (UniProt Q9H977)
inactive: duvelisib 0.273 | [8] 0.148 | nilotinib -0.087 | [4] -0.249 | dasatinib -0.112 | [5] -0.049

VWA3B isoform 6 (UniProt Q502W6)
inactive: crizotinib -0.012 | [1] 0.074 | [2] 0.045 | gandotinib -0.08 | [8] 0.172 | doramapimod 0.079 | ispinesib -0.266 | bafetinib 0.074 | [3] 0.024 | nilotinib -0.128 | [4] 0.075 | dasatinib 0.148 | [5] -0.129 | [6] 0.045 | [7] 0.003 | tipifarnib 0.047 | mubritinib 0.014

VPS54 (UniProt Q9P1Q0)
inactive: tozasertib -0.049

WIPI2 isoform 6 (UniProt Q9Y4P8)
inactive: [2] -0.19 | gandotinib -0.443 | bafetinib 0.113 | [3] -0.071 | [6] 0.034 | tipifarnib -0.018

VEGFA (UniProt H0YBI8)
inactive: crizotinib 0.027 | duvelisib 0.175 | tozasertib 0.061 | [8] 0.002 | doramapimod 0.073 | ispinesib 0.133 | bafetinib 0.029 | nilotinib 0.398 | [4] -0.053 | dasatinib 0.292 | [5] 0.096 | [7] -0.172 | tipifarnib -0.057 | mubritinib 0.115

WDR13, A0A087X091
inactive: crizotinib -0.027 | doramapimod -0.051 | nilotinib 0.127 | [4] -0.011 | [5] -0.023

VNN1 (UniProt O95497)
inactive: [2] 0.172 | [6] 0.034

Reprinted at random: 2 records from the list, in no set order.
WIPI2 isoform 6 (UniProt Q9Y4P8)
inactive: [2] -0.19 | gandotinib -0.443 | bafetinib 0.113 | [3] -0.071 | [6] 0.034 | tipifarnib -0.018

VIRMA (UniProt Q69YN4)
inactive: crizotinib 0.095 | [1] 0.232 | [2] 0.029 | gandotinib 0.11 | doramapimod 0.03 | ispinesib -0.042 | bafetinib -0.066 | [3] -0.195 | nilotinib -0.03 | [4] -0.042 | [5] 0.041 | [6] -0.193 | [7] 0.05

More entries follow.

WAC (UniProt Q9BTA9)
inactive: crizotinib -0.269 | gandotinib 0.01 | doramapimod 0.002 | [3] 0.064 | tipifarnib -0.251

WDR91 (UniProt A4D1P6)
inactive: crizotinib 0.006 | [1] -0.109 | [2] 0.083 | duvelisib 0 | tozasertib 0.171 | [8] 0.036 | doramapimod 0.08 | ispinesib -0.404 | bafetinib 0.193 | dasatinib -0.685 | [6] -0.098 | [7] -0.252 | tipifarnib 0.108 | mubritinib 0.097

VIL1 (UniProt P09327)
inactive: [1] -0.01 | gandotinib -0.201 | bafetinib -0.091 | [3] 0.037

WARS1 (UniProt G3V227)
inactive: [1] -0.024 | [2] 0.147 | [8] -0.015 | bafetinib 0 | dasatinib -0.164 | [6] -0.42

WARS1 (UniProt G3V3P2)
inactive: [9] -0.07 | bafetinib -0.076

WTAP (UniProt Q15007)
inactive: [9] -0.04 | duvelisib -0.294 | [8] 0.077 | dasatinib -0.081 | tipifarnib -0.081

VMA21 isoform 2 (UniProt Q3ZAQ7)
inactive: crizotinib 0.036 | [1] 0.264 | [2] -0.134 | duvelisib -0.315 | gandotinib 0.125 | tozasertib -0.03 | [8] -0.201 | doramapimod -0.085 | bafetinib -0.107 | [3] 0.074 | nilotinib 0.174 | [4] -0.082 | dasatinib 0.145 | [5] 0.027 | [6] 0.032 | tipifarnib -0.198 | mubritinib 0.034

VCPKMT (UniProt Q9H867)
inactive: tozasertib 0.014

WWOX (UniProt Q9NZC7)
inactive: [9] -0.068 | [2] -0.122 | tozasertib 0.027 | [6] 0.19 | tipifarnib 0.045 | mubritinib -0.058

VDAC2 (UniProt Q5JSD1)
inactive: [1] 0.25 | ispinesib -0.03 | bafetinib 0.165 | nilotinib -0.155 | [4] 0.001 | [5] -0.089 | [7] 0.114 | tipifarnib 0.095 | mubritinib 0.118

VPS37C (UniProt A5D8V6)
inactive: crizotinib -0.096 | [1] 0.105 | [2] 0.034 | duvelisib 0.063 | gandotinib -0.016 | tozasertib 0.027 | [8] 0.042 | doramapimod 0.054 | bafetinib -0.076 | [3] -0.024 | nilotinib 0 | [4] -0.003 | dasatinib -0.071 | [5] 0.014 | [6] -0.029 | tipifarnib 0.015 | mubritinib 0.053

WSB1 (UniProt Q9Y6I7)
inactive: [1] -0.229

VGF (UniProt O15240)
inactive: bafetinib 0.077 | tipifarnib 0.139

WDR76 (UniProt Q9H967)
inactive: [1] -0.053 | tipifarnib -0.013

WDR19 (UniProt Q8NEZ3)
inactive: [2] -0.003 | duvelisib -0.034 | tozasertib -0.241 | [8] 0.02 | ispinesib 0.064 | bafetinib -0.288 | dasatinib -0.062 | [6] 0.074 | [7] 0.001 | tipifarnib 0.165

VWF (UniProt P04275)
inactive: crizotinib 0 | doramapimod -0.063

XAB2 (UniProt Q9HCS7)
active: crizotinib -0.69
inactive: [1] -0.223 | [8] 0.013 | doramapimod -0.035 | ispinesib -0.223 | dasatinib -0.092 | [7] 0.125 | mubritinib -0.151

VPS35, A0A1W2PP10
inactive: crizotinib -0.267 | [1] -0.221 | tozasertib 0.008 | doramapimod 0.059 | bafetinib -0.032 | nilotinib 0.024 | [4] -0.136 | [5] -0.027 | tipifarnib 0.084 | mubritinib -0.004
